Experimental data reported in PubChem BioAssay (NCATS).
The shares of active, inactive and inconclusive entries below differ from those in the screen. Calls come from the whole dose curve; as a rule, active = well fitted curve in the direction sought with a large enough effect; inconclusive = small, poorly fitted or top-dose-only effect, or another doubt; inactive = no such curve, though single readings can be large; an effect the other way counts as inactive or inconclusive. Potencies beside an inconclusive call are fits to weak or partial responses and may not hold up.

Chains of the proteins cited; added tags and fusions are not shown. Lines headed by an entry give the natural chain unless they say otherwise; changes in a name come on top.
UniProt P11473: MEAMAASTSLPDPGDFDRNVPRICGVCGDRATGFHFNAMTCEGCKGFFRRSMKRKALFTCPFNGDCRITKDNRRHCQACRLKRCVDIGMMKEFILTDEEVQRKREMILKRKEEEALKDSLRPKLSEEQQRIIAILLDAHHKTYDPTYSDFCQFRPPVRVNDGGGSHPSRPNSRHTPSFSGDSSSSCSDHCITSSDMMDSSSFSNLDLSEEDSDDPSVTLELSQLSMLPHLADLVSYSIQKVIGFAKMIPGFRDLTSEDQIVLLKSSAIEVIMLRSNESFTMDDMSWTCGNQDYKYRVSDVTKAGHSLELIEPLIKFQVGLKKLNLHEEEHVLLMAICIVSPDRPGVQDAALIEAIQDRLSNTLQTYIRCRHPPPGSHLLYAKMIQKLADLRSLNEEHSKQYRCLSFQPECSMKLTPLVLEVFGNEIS
UniProt Q9UNA4: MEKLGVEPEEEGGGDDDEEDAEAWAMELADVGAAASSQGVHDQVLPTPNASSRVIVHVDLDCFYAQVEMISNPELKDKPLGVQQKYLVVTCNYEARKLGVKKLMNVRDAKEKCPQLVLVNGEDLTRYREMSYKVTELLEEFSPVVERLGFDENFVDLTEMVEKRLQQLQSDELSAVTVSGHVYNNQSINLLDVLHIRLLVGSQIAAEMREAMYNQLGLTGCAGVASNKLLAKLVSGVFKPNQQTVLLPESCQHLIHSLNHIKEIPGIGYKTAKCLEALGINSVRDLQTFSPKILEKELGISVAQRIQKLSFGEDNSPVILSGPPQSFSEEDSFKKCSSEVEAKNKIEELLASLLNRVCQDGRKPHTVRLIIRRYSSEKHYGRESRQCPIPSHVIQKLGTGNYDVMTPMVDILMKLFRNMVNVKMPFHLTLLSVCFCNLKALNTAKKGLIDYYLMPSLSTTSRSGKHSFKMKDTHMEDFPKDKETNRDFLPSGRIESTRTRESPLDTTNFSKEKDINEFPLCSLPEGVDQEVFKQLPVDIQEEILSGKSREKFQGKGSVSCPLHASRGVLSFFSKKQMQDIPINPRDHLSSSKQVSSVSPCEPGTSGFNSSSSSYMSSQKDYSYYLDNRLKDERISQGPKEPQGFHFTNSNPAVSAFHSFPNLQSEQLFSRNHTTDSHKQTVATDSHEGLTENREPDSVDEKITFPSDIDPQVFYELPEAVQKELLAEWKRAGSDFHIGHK

How the values were obtained:
[1] = target: Vitamin D3 receptor (Homo sapiens) (UniProt P11473); assay: qHTS for Inhibitors of the vitamin D receptor (VDR): Hit Validation in Primary Screen (AID 602199); conditions: VDR-coactivator inhibition assay, qHTS confirmation
Method in brief: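 Fluorescence polarization (Ex 620/Em 688 nm) of Alexa 647-SRC2-3 peptide with 800 nM VDR and 5 uM LG19078. Compounds at several concentrations, 2 h at room temperature.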

[2] = qHTS for Inhibitors of the vitamin D receptor (VDR): Hit Validation using a Cytotoxicity Assay (AID 602204); conditions: cytotoxicity counter-screen, cell viability; series mostly up to 48.3 µM;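 note: cells co-treated with VDR agonist LG190178 at 300 nM; nearly all actives have a fitted effect of over 75% in size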
Text: The vitamin D receptor (VDR) is a ligand-activated transcription factor and is partially responsible for the regulation of the endocrine system. This includes the transcriptional regulation of genes involved in the production of the parathyroid hormone (PTH) and the regulation of the blood calcium level. High levels of PHT can cause hypercalcemia in the case of primary and tertiary hyperparathyroidism. The VDR-mediated gene regulation, activated by its ligand 1,25-dihydroxyvitamin D3 (1,25-(OH)2D3), is governed by the recruitment of coactivators. Our hypothesis is that small molecules, with the ability to inhibit the interaction between VDR and certain coactivators, are able to selectively modulate VDR-mediated transcription. Our long term objective is the application these VDR-coactivator inhibitors to study the role of VDR-coactivator binding for specific VDR regulated genes. […]
In a collaboration between the University of Wisconsin, Milwaukee and the NIH Chemical Genomics Center (NCGC) a HTS-compatible enzymatic assay was developed. The assay uses fluorescence polarization as its read-out to measure the inhibition between VDR and coregulator peptide SRC2-3 exerted by small molecules. […] This assay quantifies the amount of ATP generated by living cells and compounds that are active in this assay are undesirable for the project due to cytotoxicity. […]
Step 8: Read luminescence

[3] = target: DNA polymerase iota (Homo sapiens) (UniProt Q9UNA4); assay: qHTS for Inhibitors of Polymerase Iota: Confirmatory Assay for Cherry-picked Compounds (AID 720496); conditions: Pol iota primer extension, TAMRA/BHQ fluorescence
Method in brief: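 Kinetic fluorescence, 0 → 10 min, ex 525/em 598 nm. Pol iota 10 nM, 15 min RT preincubation with compound, then 50 nM (final) TAMRA/BHQ-2 primer-template substrate.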

[4] = target: Vitamin D3 receptor (Homo sapiens) (UniProt P11473); assay: qHTS for Inhibitors of the vitamin D receptor (VDR): Hit Validation using a Fluorescein Assay (AID 602200); conditions: VDR-coactivator binding, fluorescein fluorescence polarization; series mostly up to 57.1 µM
Method in brief: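 Fluorescence polarization: 1.5 uM VDR-LBD, 5 uM LG19078 and 5 nM fluorescein-labeled SRC2-3 peptide (final) with compounds, 2 h at room temperature. Read at Ex 495/Em 520 nm; peptide-only wells served as control.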
Potency is the fitted concentration of half-maximal effect.

SMILES | Potency [1] | Potency [2] | Potency [3] | Potency [4]
Cc1ccc(S(=O)(=O)Oc2ccc(/C=C3\C(=N)N4N=C(S(C)(=O)=O)SC4=NC3=O)cc2)cc1 | inconclusive: 3.36 µM [inhibitor, full curve] | inconclusive: 3.16 µM [rising, full curve] | inconclusive: 75.2 µM [inhibitor, partial curve] | 
O=C1NN(c2ccc(F)c(Cl)c2)C(=O)/C1=C\c1cccc(OC(=O)c2cccs2)c1 |  |  |  | inconclusive: 3.16 µM [inhibitor, partial curve, poor fit]
